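Genome-wide siRNA knockdown in TC32 Ewing sarcoma cells, comparing luciferase light from an NR0B1-promoter reporter with a CMV-promoter reporter 48 hours after transfection.
Each siRNA was applied at 20 nM.
A z-score of the log NR0B1-over-CMV signal, less the median of siRNAs with the same seed; more negative means a stronger specific loss of the NR0B1 reporter.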

This is part of the screen; most of the strongest results are not listed here.
Sequences are the guide (antisense) strand, without overhang.

UACUGAGCAAUUCAAUUGG against BCAS2 read seed-corrected z-score 0.4678.
UCUUGAAUAACACUAUCAC against TTC30B read seed-corrected z-score 0.2811.
AUCGUGACCACUCUCAAAG against DCAF8L1 read seed-corrected z-score 0.004999.
UUCACGACUGCGUUCUUCC against TRIP10 read seed-corrected z-score -0.5387.
UCUUCGUUAAGACAUGCCC against DMRT2 read seed-corrected z-score 0.6755.
UUGUCGAUAGAAAGUGUCG against UBA3 read seed-corrected z-score -1.672.
UCUCGGGUGAGAUUUUCCC against TSPAN18 read seed-corrected z-score 1.045.
AUCUGAAUCACCAUCACUG against PHF10 read seed-corrected z-score -0.311.
AAACAGGAACUUAAAGUAG against CHST14 read seed-corrected z-score -0.05581.
UUAUGAGCAAGAUGUCUGC against LSM12 read seed-corrected z-score -0.413.
UUUCGUUGUAAAAUGACUU against SLC2A7 read seed-corrected z-score -0.02114.
UGUUAAAUUAGCUACCUGC against SNX19P3 read seed-corrected z-score 0.1361.
UUCUGAAGUGUCCACCUCC against NUCB1 read seed-corrected z-score 0.1796.
AUCCGUUUCAAUUUCAUAC against KCNC2 read seed-corrected z-score 0.07429.
UGAAUCUUCUCCACACUUC against LOC729307 read seed-corrected z-score -0.7521.
UGCGUUCAAAACAAAAUCC against CDK2AP1 read seed-corrected z-score 0.01549.
UUUGUCACUGGUAAGAUCC against RPS3AP5 read seed-corrected z-score 0.5535.
AGAGCUUCAGGUGACAGGG against TTC34 read seed-corrected z-score -0.7034.
UCAUUGUCUAAUUGCAGCG against AVL9 read seed-corrected z-score -0.1847.
UUGUCAUCUAUGAGACUCC against MMP27 read seed-corrected z-score -0.5799.
UGGUAUAAUACAGUAAUGC against PIGW read seed-corrected z-score -0.1342.
UGGUUGAUCAUAUAGGGCC against OR5A2 read seed-corrected z-score 0.7368.
AAAGGUCUCGUGGAGCUGC against WFDC1 read seed-corrected z-score 1.494.
AUACGUGAGGUUGCGAGCC against WDR54 read seed-corrected z-score -0.7783.
UAGUUGUUUCCUUCGAUCC against CKAP2L read seed-corrected z-score 0.03042.
UACAUAGUUAUUCCAGCAC against DEFB127 read seed-corrected z-score -0.04924.
UCCGUUCACUGAUAGCAGC against LIN7A read seed-corrected z-score -0.1627.
UCUGAGUCAUUGGUUAGUC against OR5B3 read seed-corrected z-score 1.301.
UGCUGAUCAAUUAGGUUUG against BHLHE40 read seed-corrected z-score -0.0811.
UGAUGUAUCUGGGAUAUCU against KRT2 read seed-corrected z-score -0.02117.
UUUUGUAGCAAGCUCCCUG against TBC1D26 read seed-corrected z-score 1.145.
UUAUAGACUCCUUCAAUUG against TXNRD3 read seed-corrected z-score -0.1987.
UUAGGUCCCUGCCUCUUUC against CCR10 read seed-corrected z-score -0.4817.
UAUUGUUCUGUUGUCCACU against SNRPG read seed-corrected z-score -1.312.
UUACAUCCAUAAAUAUUCC against ZNF534 read seed-corrected z-score -0.01786.
UAAGUUACUGUUGGUGUGA against ROBO1 read seed-corrected z-score -0.6336.
AAAGUUCUCCUUAUGCACC against TRPM4 read seed-corrected z-score -0.5166.
UAGUGGAACUUGUCAAUGG against NBEAL2 read seed-corrected z-score -1.019.
UUUGUGAUCAGCAUAAAAU against CHURC1 read seed-corrected z-score 0.6108.
AAUCUAACGAUGAAGUAGC against ABCB7 read seed-corrected z-score -0.4882.
UGUCCAAUAAUUCACAUCC against HAVCR2 read seed-corrected z-score 0.3701.
UGCUCGAUCUUCACACUCC against KCNN1 read seed-corrected z-score -0.1081.
UCUGCGUCCAGUUUACGCA against ADAT3 read seed-corrected z-score -0.02552.

Once more, the final 4:

- AAUCUAACGAUGAAGUAGC against ABCB7 | seed-corrected z-score -0.4882
- UGUCCAAUAAUUCACAUCC against HAVCR2 | seed-corrected z-score 0.3701
- UGCUCGAUCUUCACACUCC against KCNN1 | seed-corrected z-score -0.1081
- UCUGCGUCCAGUUUACGCA against ADAT3 | seed-corrected z-score -0.02552

Source: PubChem BioAssay AID1159506 (NCATS, 2015).